Source: the supplement of paper PMC10735217
Counter-ions that a name gives are not always drawn. The list shows a part of the results. This data set is noisy: repeats of one test often differ as much as different tests do.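 Human kidney-derived cells stably carry a construct in which eight TEAD-binding elements drive luciferase, measured by luminescence in a drug-repurposing library screen. A hit is any compound whose signal exceeds the plate mean by more than five robust Z scores.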

System: HEK293A TEAD-LUC reporter
Assay: TEAD-luciferase reporter activity (YAP activation), robust Z score vs plate; higher = stronger YAP/TEAD activation
Settings: 24 h

| Structure (SMILES) | TEAD-luciferase reporter activity (compound concentration: 200 nM) | TEAD-luciferase reporter activity (compound concentration: 2 uM) | TEAD-luciferase reporter activity (compound concentration: 10 uM) |
| --- | --- | --- | --- |
| C[N+]1(C)[C@@H]2CC[C@H]1C[C@@H](CC(C#N)(c1ccccc1)c1ccccc1)C2 | inactive: 0.452 | inactive: -0.253 | inactive: 0.712 |
| N#Cc1c(Oc2cccc(OS(=O)(=O)CCCC(F)(F)F)c2)cccc1C(F)(F)F | inactive: 1.46 | inactive: 2.12 | inactive: -0.781 |
| N#CC(CCN1CCC(C(N)=O)(N2CCCCC2)CC1)(c1ccccc1)c1ccccc1 | inactive: -0.556 | inactive: 0.338 | inactive: -0.693 |
| CN(C)CCNc1nc2cc(O)ccc2c2c1C(=O)c1ccccc1-2 | inactive: -0.897 | inactive: -0.0883 | inactive: 1.24 |
| NCCc1ccc2c(c1)OCO2 | inactive: 0.41 | inactive: 0.466 | inactive: 1.14 |
| Cc1ccc2c(c1)N1CCN(C)CC1c1ccccc1O2 (stereo not given) | inactive: -1.38 | inactive: -1.08 | inactive: 2.49 |
| Oc1cc(Cl)ccc1Oc1ccc(Cl)cc1Cl [Triclosan3380-34-5] | inactive: -2.85 | – | inactive: 0.0128 |
| Oc1cc(Cl)ccc1Oc1ccc(Cl)cc1Cl [Triclosan] | – | inactive: -1.25 | – |
| CCn1cc(C(=O)O)c(=O)c2cc3c(cc21)OCO3 | inactive: -0.624 | inactive: -1.21 | active: 5.76 |
| O=C(C[C@@H]1NCCC[C@H]1O)Cn1cnc2cc(Br)c(Cl)cc2c1=O [halofugi  , Hadasit] | – | – | inactive: -0.847 |
| O=C(C[C@@H]1NCCC[C@H]1O)Cn1cnc2cc(Br)c(Cl)cc2c1=O [halofugi] | – | inactive: -2.22 | – |
| O=C(C[C@@H]1NCCC[C@H]1O)Cn1cnc2cc(Br)c(Cl)cc2c1=O [halofugi, Hadasit] | inactive: 0.806 | – | – |
| CCCCCCCCCCCCCCCCS(=O)(=O)N1CCc2c(sc3c2C(c2ccccc2Cl)=NCc2nnc(C)n2-3)C1 | inactive: 0.513 | inactive: -1.73 | inactive: -1.28 |
| CNC(=O)N(C)N=O [Dimethynur] | inactive: 0.855 | inactive: 0.0257 | inactive: -0.451 |
| COc1ccc(C(OCCN2CCN(CCCC(=O)c3ccc(F)cc3)CC2)c2ccccc2)cc1 (stereo not given) [mobenzoxamine] | inactive: 2.8 | inactive: 0.147 | inactive: 3.17 |
| C=CCN1CC[C@]23c4c5ccc(O)c4O[C@H]2C(=O)CCC3(O)C1C5 (stereo not given in full) [Naloxon] | inactive: 0.968 | inactive: -1.1 | inactive: 0.831 |
| COc1ccc2c(c1O)CNCC2c1ccc(O)c(O)c1 (stereo not given) | inactive: -0.829 | inactive: -1.16 | inactive: 2.57 |
| CN1C(=O)C(O)N=C(c2ccccc2)c2cc(Cl)ccc21 (stereo not given) [Temazepam] | inactive: -0.686 | – | inactive: -1.12 |
| Cc1ccc(C(=O)N2CCCC2C(=O)N2CCC(N3CCOCC3=O)CC2)cc1 (stereo not given) | inactive: -2.08 | – | inactive: -0.25 |

| Structure (SMILES) | TEAD-luciferase reporter activity (compound concentration: 200 nM) | TEAD-luciferase reporter activity (compound concentration: 2 uM) | TEAD-luciferase reporter activity (compound concentration: 10 uM) |
| --- | --- | --- | --- |
| C=CCN(C1=NCCN1)c1c(Cl)ccc2nsnc12 | inactive: -1.88 | inactive: -1.07 | inactive: 0.428 |
| Fc1cccc(F)c1C1SCc2nc3ccccc3n21 (stereo not given) | inactive: -1.02 | inactive: -0.743 | inactive: 0.0336 |
| c1cncc(C2CCC3CCN2CC3)c1 (stereo not given) | active: 7.16 | inactive: 4.09 | inactive: 0.37 |
| O=C(c1ccc(Cl)o1)N1CC2CNCC2C1 (stereo not given) | inactive: -1.57 | inactive: 2.24 | inactive: 0.962 |
| CCC1(c2ccccc2)C(=O)NC(=O)N(C)C1=O (stereo not given) [Methylphenobarbital] | inactive: -1.87 | inactive: -1.91 | active: 6.66 |
| CCN(CC)C(=O)N[C@H]1CC2c3cccc4[nH]cc(c34)CC2N(C)C1 (stereo not given in full) [Terguride] | inactive: -1.89 | inactive: -0.6 | inactive: 3.34 |
| CN(N=O)C(=O)N[C@@H]1OC(CO)[C@@H](O)C(O)C1O (stereo not given in full) | inactive: -0.192 | inactive: -0.658 | inactive: -1.24 |
| COC(=O)Nc1nc2ccccc2[nH]1 [carbendazim] | inactive: 1.95 | inactive: -1.94 | inactive: -1.45 |
| Cc1cccc([C@H](C)c2c[nH]c(=S)[nH]2)c1C | inactive: -0.172 | inactive: -1.57 | inactive: 0.229 |
| CNCc1nnc2n1-c1ccc(Cl)cc1C(c1ccccc1)=NC2 [N-Desmethyladinazolam] | inactive: -2.4 | inactive: -0.226 | active: 7.19 |
| Cc1cccc(NC(=O)N[C@@H]2N=C(c3ccccc3)c3ccccc3N(CC(=O)c3ccccc3C)C2=O)c1 | inactive: -1.32 | inactive: -1.4 | inactive: -0.347 |
| C#C[C@]1(OC(C)=O)CCC2C3CC[C@H]4CC(OC(C)=O)CCC4(C)C3CCC21C (stereo not given in full) | inactive: -0.434 | inactive: -1.29 | inactive: -0.435 |
| C=C/C=C/CC1=C(C)C(OC(=O)[C@@H]2C(/C=C(\C)C(=O)OC)C2(C)C)CC1=O.C=C/C=C/CC1=C(C)[C@@H](OC(=O)[C@@H]2C(C=C(C)C)C2(C)C)CC1=O (stereo not given in full) | inactive: 0.0212 | inactive: -0.314 | inactive: -0.635 |
| CC1O[C@H](O[C@H]2C[C@@H](O)[C@]3(CO)C4C(O)C[C@]5(C)[C@@H](C6=CC(=O)OC6)CC[C@]5(O)[C@@H]4CC[C@]3(O)C2)C(O)C(O)[C@@H]1O (stereo not given in full) [G-Strophanthin] | active: 19.3 | inactive: -3.72 | active: 17.5 |
| CN1C[C@H](C(=O)N[C@]2(C)O[C@@]3(O)[C@@H]4CCCN4C(=O)[C@H](Cc4ccccc4)N3C2=O)CC2c3cccc4[nH]cc(c34)C[C@H]21 (stereo not given in full) | inactive: -0.486 | inactive: -1.36 | inactive: 2.46 |
| CC(C)(C)c1ccc(O)cc1 | inactive: -0.699 | inactive: -0.938 | inactive: -0.41 |
| O=S(=O)(Oc1ccc(Cl)cc1)c1ccc(Cl)cc1 [Miticide K 101] | inactive: 0.664 | inactive: 1.3 | inactive: -1.58 |
| O=C(CC1c2ccccc2C(=O)N1c1ccc2ccc(Cl)nc2n1)N1CCC2(CC1)OCCO2 (stereo not given) | inactive: -0.857 | inactive: 0.469 | inactive: 0.34 |
| C[C@H]1[C@H](O)[C@@H](C)/C=C/C=C/CC/C=C/C=C/C=C/C=C/[C@H](O[C@@H]2O[C@H](C)[C@@H](O)[C@H](N)[C@@H]2O)C[C@@H]2O[C@](O)(C[C@@H](O)[C@H](O)CC[C@@H](O)C[C@@H](O)C[C@@H](O)CC(=O)O[C@H]1C)C[C@H](O)[C@H]2C(=O)O [Nystatin] | inactive: -0.289 | inactive: 0.0862 | inactive: 0.197 |

Exported tab-delimited: entries from further up.
Structure (SMILES)	TEAD-luciferase reporter activity (compound concentration: 200 nM)	TEAD-luciferase reporter activity (compound concentration: 2 uM)	TEAD-luciferase reporter activity (compound concentration: 10 uM)
c1cncc(C2CCC3CCN2CC3)c1 (stereo not given)	active: 7.16	inactive: 4.09	inactive: 0.37
O=C(c1ccc(Cl)o1)N1CC2CNCC2C1 (stereo not given)	inactive: -1.57	inactive: 2.24	inactive: 0.962
CCC1(c2ccccc2)C(=O)NC(=O)N(C)C1=O (stereo not given) [Methylphenobarbital]	inactive: -1.87	inactive: -1.91	active: 6.66
CCN(CC)C(=O)N[C@H]1CC2c3cccc4[nH]cc(c34)CC2N(C)C1 (stereo not given in full) [Terguride]	inactive: -1.89	inactive: -0.6	inactive: 3.34
CN(N=O)C(=O)N[C@@H]1OC(CO)[C@@H](O)C(O)C1O (stereo not given in full)	inactive: -0.192	inactive: -0.658	inactive: -1.24
COC(=O)Nc1nc2ccccc2[nH]1 [carbendazim]	inactive: 1.95	inactive: -1.94	inactive: -1.45
Cc1cccc([C@H](C)c2c[nH]c(=S)[nH]2)c1C	inactive: -0.172	inactive: -1.57	inactive: 0.229
CNCc1nnc2n1-c1ccc(Cl)cc1C(c1ccccc1)=NC2 [N-Desmethyladinazolam]	inactive: -2.4	inactive: -0.226	active: 7.19
Cc1cccc(NC(=O)N[C@@H]2N=C(c3ccccc3)c3ccccc3N(CC(=O)c3ccccc3C)C2=O)c1	inactive: -1.32	inactive: -1.4	inactive: -0.347
C#C[C@]1(OC(C)=O)CCC2C3CC[C@H]4CC(OC(C)=O)CCC4(C)C3CCC21C (stereo not given in full)	inactive: -0.434	inactive: -1.29	inactive: -0.435
C=C/C=C/CC1=C(C)C(OC(=O)[C@@H]2C(/C=C(\C)C(=O)OC)C2(C)C)CC1=O.C=C/C=C/CC1=C(C)[C@@H](OC(=O)[C@@H]2C(C=C(C)C)C2(C)C)CC1=O (stereo not given in full)	inactive: 0.0212	inactive: -0.314	inactive: -0.635
CC1O[C@H](O[C@H]2C[C@@H](O)[C@]3(CO)C4C(O)C[C@]5(C)[C@@H](C6=CC(=O)OC6)CC[C@]5(O)[C@@H]4CC[C@]3(O)C2)C(O)C(O)[C@@H]1O (stereo not given in full) [G-Strophanthin]	active: 19.3	inactive: -3.72	active: 17.5
CN1C[C@H](C(=O)N[C@]2(C)O[C@@]3(O)[C@@H]4CCCN4C(=O)[C@H](Cc4ccccc4)N3C2=O)CC2c3cccc4[nH]cc(c34)C[C@H]21 (stereo not given in full)	inactive: -0.486	inactive: -1.36	inactive: 2.46
CC(C)(C)c1ccc(O)cc1	inactive: -0.699	inactive: -0.938	inactive: -0.41

Next entries:

| Structure (SMILES) | TEAD-luciferase reporter activity (compound concentration: 200 nM) | TEAD-luciferase reporter activity (compound concentration: 2 uM) | TEAD-luciferase reporter activity (compound concentration: 10 uM) |
| --- | --- | --- | --- |
| NC(=O)c1ncn2c1CN=C(c1ccccc1Br)c1cc(F)ccc1-2 [Imidazenil] | inactive: -1.72 | inactive: -1.31 | inactive: 0.0311 |
| CC(c1ccccc1)C(C)(C)N (stereo not given) | inactive: -0.697 | – | inactive: 3.63 |
| CCCCCOc1c(OC)ccc2cc(C(=O)NCc3ccc4c(c3)OCO4)c(O)nc12 | inactive: 2.09 | inactive: -1.62 | active: 6.06 |
| Oc1ccc2c(c1)[C@@]13CCCC[C@H]1[C@@H](C2)N(CC1CCC1)CC3 | inactive: -2.58 | inactive: -1.07 | inactive: -1.32 |
| Cc1ccc(-c2nc3ccc(C)cn3c2CC(=O)N(C)C)cc1 [zolpidem tartrate MR] | – | inactive: -1.06 | – |
| Cc1ccc(-c2nc3ccc(C)cn3c2CC(=O)N(C)C)cc1 | inactive: 0.92 | – | inactive: 1.84 |
| CN(C)C[C@H]1C[C@@H]1c1c[nH]c2ccc(C#N)cc12 | inactive: -1.52 | inactive: -0.523 | inactive: -0.753 |
| COc1cccc(NCC(F)Cn2c3ccc(Br)cc3c3cc(Br)ccc32)n1 (single isomer, unassigned; (-)) | inactive: 1.61 | inactive: -0.379 | inactive: -0.415 |
| O=C(Cc1ccc(C(F)(F)F)cc1)N1CCCCC1CN1CCCC1 (stereo not given) | inactive: 0.989 | inactive: 1.27 | inactive: -0.805 |
| CC(=O)N(C)C(C)C(=O)c1ccc2c(c1)OCO2 (stereo not given) | inactive: -0.144 | inactive: -0.473 | inactive: 0.938 |
| CCC(C)(CC)OC(N)=O | inactive: -0.323 | inactive: -0.557 | inactive: -0.278 |
| CCCCCCCCCCCC(=O)OOC(=O)CCCCCCCCCCC | inactive: -0.593 | inactive: -0.526 | inactive: -0.577 |
| CCCN(CCC)CCc1ccc(OC)c(OCCc2ccccc2)c1 | inactive: 4.56 | inactive: -1.89 | inactive: 0.0556 |
| C#CCN1C(=O)NC2(CCN(CC(C)C)CC2)C1=O | inactive: 0.985 | inactive: -0.421 | inactive: -1.42 |
| O=C(NCc1ccccn1)c1cnc(Nc2cccc(Cl)c2)nc1C(F)(F)F | inactive: -0.488 | inactive: -0.912 | inactive: 0.654 |
| COc1ccc2c3c1O[C@@]1(C)C[C@@H](O)C=CC31CCN(C)C2 (stereo not given in full) | inactive: 2.2 | inactive: -0.417 | inactive: -1.15 |
| Clc1ccc2c(c1)C(c1ccccc1)=NCc1nncn1-2 [Estazolam] | inactive: 0.0975 | – | inactive: 2.08 |
| CN1C(=O)[C@@H](NC(=O)[C@H](CCC(F)(F)F)[C@@H](CCC(F)(F)F)C(N)=O)N=C(c2ccccc2)c2ccccc21 | inactive: -0.677 | inactive: -1.45 | inactive: -1.21 |
| COc1ccc(CC(C)NCC(O)c2cc(N)cc(CO)c2)cc1 (stereo not given) | inactive: -1.76 | inactive: -1.22 | inactive: 1.08 |
